PMC3540053
Where a chain is given by its changes, count along the chain named. Results are given in words; binding and its absence hold for the method and conditions named.

Key:
Assay in all cases: two-hybrid; OsCOIs as baits in pGBKT7, OsJAZs or JAZs as preys in pGADT7, co-transformed into S. cerevisiae AH109; growth on SD without Ade, His, Leu and Trp (QDO) with 100 µM coronatine, 7 days; graded strong (+++), medium (++), weak (+), undetectable (−)
OsCOI2 (Oryza sativa) = target: T1, OsCOI2 (Oryza sativa) (UniProt Q84QA7)
T1 sequence: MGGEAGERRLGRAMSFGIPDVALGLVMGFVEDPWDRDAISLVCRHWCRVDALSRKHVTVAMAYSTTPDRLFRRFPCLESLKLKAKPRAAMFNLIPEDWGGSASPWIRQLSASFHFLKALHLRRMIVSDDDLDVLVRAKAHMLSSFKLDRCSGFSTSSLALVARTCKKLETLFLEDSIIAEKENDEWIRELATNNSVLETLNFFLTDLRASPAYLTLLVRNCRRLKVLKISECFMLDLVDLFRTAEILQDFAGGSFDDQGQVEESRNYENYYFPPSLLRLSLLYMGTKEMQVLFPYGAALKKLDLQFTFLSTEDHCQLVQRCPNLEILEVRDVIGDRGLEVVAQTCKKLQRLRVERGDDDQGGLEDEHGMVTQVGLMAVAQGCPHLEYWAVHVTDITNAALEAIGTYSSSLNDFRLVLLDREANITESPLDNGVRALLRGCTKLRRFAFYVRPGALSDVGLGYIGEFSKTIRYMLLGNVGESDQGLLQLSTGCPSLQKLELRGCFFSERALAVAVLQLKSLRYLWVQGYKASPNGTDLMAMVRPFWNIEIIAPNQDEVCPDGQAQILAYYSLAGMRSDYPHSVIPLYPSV

OsCOI1a (Oryza sativa) = target: T2, OsCOI1a (Oryza sativa) (UniProt Q6Y9P5)
T2 sequence: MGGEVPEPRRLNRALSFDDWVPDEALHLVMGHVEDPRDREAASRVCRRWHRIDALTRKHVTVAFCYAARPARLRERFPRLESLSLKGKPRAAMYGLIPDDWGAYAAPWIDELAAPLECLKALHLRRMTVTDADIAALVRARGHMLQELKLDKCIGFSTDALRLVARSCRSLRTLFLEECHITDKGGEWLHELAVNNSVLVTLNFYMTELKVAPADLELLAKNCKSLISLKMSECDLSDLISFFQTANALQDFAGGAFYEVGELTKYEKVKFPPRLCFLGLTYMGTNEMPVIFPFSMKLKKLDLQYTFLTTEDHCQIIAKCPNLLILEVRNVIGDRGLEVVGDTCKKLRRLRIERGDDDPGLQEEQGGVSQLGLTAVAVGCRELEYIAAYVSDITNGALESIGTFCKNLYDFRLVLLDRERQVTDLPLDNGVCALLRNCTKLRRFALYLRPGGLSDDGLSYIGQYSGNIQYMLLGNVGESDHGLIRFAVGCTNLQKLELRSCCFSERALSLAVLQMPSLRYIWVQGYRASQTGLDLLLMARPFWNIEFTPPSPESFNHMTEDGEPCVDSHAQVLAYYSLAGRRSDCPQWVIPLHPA

[1] = target: T3, OsCOI1a(N475Y) (Oryza sativa) (UniProt Q6Y9P5)
T3 sequence: T2 sequence with N475Y

[2] = target: T4, OsCOI2(N477Y) (Oryza sativa) (UniProt Q84QA7)
T4 sequence: T1 sequence with N477Y

[3] = target: T5, OsCOI2(H391Y) (Oryza sativa) (UniProt Q84QA7)
T5 sequence: T1 sequence with H391Y

[4] = target: T6, OsCOI2(F91Y) (Oryza sativa) (UniProt Q84QA7)
T6 sequence: T1 sequence with F91Y

OsCOI1b (Oryza sativa) = target: T7, OsCOI1b (Oryza sativa) (UniProt Q60EH4)
T7 sequence: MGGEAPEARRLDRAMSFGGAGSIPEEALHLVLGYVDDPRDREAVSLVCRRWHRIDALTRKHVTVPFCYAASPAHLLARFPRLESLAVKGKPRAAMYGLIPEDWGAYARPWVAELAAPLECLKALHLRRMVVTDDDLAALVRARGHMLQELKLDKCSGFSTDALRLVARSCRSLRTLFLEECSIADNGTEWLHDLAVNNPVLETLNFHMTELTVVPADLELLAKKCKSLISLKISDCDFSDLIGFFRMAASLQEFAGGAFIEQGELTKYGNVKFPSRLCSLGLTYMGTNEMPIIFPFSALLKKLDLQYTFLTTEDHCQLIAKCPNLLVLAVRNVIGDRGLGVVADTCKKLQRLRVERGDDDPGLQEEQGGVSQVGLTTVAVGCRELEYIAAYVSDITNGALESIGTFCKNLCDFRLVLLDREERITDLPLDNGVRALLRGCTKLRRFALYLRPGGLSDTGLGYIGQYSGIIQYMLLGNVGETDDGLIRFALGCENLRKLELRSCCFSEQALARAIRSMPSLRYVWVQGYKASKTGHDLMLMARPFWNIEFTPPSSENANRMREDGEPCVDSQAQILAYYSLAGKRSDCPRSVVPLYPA

Measured: binding

B1: OsJAZ7 (protein, UniProt Q69P94 1-232)
chain: MAGRATATATAAGKDRSSFAVTCSLLSQFLKEKKGGGGGLQGLGLGLRPAPAAPPAAGAGGAFRPPPTTMNLLSGLDAPAVEVEPNTAETAADELPLIKAPADQQSDESASEAAGEKAQQLTIFYGGKVVVFENFPSTKVKDLLQIVSTGDGVDKNTGTAATQSLPRPAHNSLPDLPIARRNSLHRFLEKRKGRMNANAPYQANCTAAPSKQANGDKSWLGFGQEMTIKQEI
no binding: OsCOI2 (Oryza sativa) | OsCOI1a (Oryza sativa) | [1]

B2: OsJAZ10 (protein, UniProt Q7XPM8 1-216)
chain: MDLLEKKNIKKGGEVEEEVARKGEERKEEEVVVEEKSHQQQQQQGEEELVGLSLAGGRPKVFPMSSPPPNPSQLTIFYGGSVCVYDSVPPEKAQAIMLIAAAAAAAASATKSNAAIAVKPPVMPAANATQAAVSPVLTRSLSLQSTSVATGQPQVAADPSSICKLQADLPIARRHSLQRFLEKRRDRLVSKAPYPTKSSEGMEASGMEVTAEGKAQ
not listed: [1] | OsCOI1b (Oryza sativa)
no binding: all other assays above

B3: OsJAZ11 (protein, UniProt Q7XV97 1-188)
chain: MSTRAPVELDFLGLRAAAADADDRHAKSGGSSASSSSSIRGMETSAIARIGPHLLRRVIAAAGPPPPPSTAPVPEEMPGAAAAAAPMTLFYNGSVAVFDVSHDKAEAIMRMATEATKAKGLARGNAIVGNFAKEPLTRTKSLQRFLSKRKERLTSLGPYQVGGPAAVGATTSTTTKSFLAKEEEHTAS
no binding: OsCOI1b (Oryza sativa)
